The other results are listed elsewhere or left out. This data set is noisy: repeats of one test often differ as much as different tests do.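 U2OS cells carrying ACE2 were mixed with U2OS cells carrying full-length spike, and fusion was scored by imaging as the share of nuclei showing both cell types' fluorescent markers. A compound counts as an inhibitory hit when it is non-toxic and its fusion z-score falls below -3, meaning more than three standard deviations below the plate's DMSO wells.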
Each molecule was assayed on U2OS ACE2 x SARS-CoV-2 spike co-culture (assay: cell-cell fusion (fraction fused) z-score vs plate DMSO control; higher = more fusion). Conditions: 30 µM; 5 h; toxicity class: non-toxic, passed QC.
`CCCCC1C(=O)N(c2ccccc2)N(c2ccccc2)C1=O` [Phenylbutazone] was tested, and the “cell-cell fusion (z-score)” value was inactive: 3.21.
`O=c1c(-c2ccc(O)cc2)coc2cc(O)ccc12` was tested, and the “cell-cell fusion (z-score)” value was inactive: 1.77.
In the case of `COc1cc(OC)c2c(c1)OC(c1ccccc1)CC2=O` (configuration not stated), the “cell-cell fusion (z-score)” value is reported as inactive: 1.42.
With `CCCCCCCN(CC)CCCC(O)c1ccc(NS(C)(=O)=O)cc1.CCCCCCCN(CC)CCCC(O)c1ccc(NS(C)(=O)=O)cc1.O=C(O)/C=C/C(=O)O` (configuration not stated) [Ibutilide Fumarate] the “cell-cell fusion (z-score)” value was inactive: 2.81.
For `CC1(C)OC(=O)C(OCC2CC2)=C1c1ccc(S(C)(=O)=O)cc1`, the “cell-cell fusion (z-score)” value was inactive: 2.12.
For `CC#C[C@]1(O)CC[C@H]2[C@@H]3CCC4=CC(=O)CCC4=C3[C@@H](c3ccc(N(C)C)cc3)C[C@@]21C` [Mifepristone], the “cell-cell fusion (z-score)” value was inactive: -0.238.
`CC(=O)Oc1ccccc1C(=O)Nc1ncc([N+](=O)[O-])s1` [Nitazoxanide] was tested, and the “cell-cell fusion (z-score)” value was inactive: 1.5.
In the case of `Nc1ccn([C@@H]2O[C@H](CO)[C@@H](O)[C@@H]2O)c(=O)n1` [Cytarabine], the “cell-cell fusion (z-score)” value is reported as inactive: 3.72.
For `CC(N)[C@H]1CC[C@H](C(=O)Nc2ccncc2)CC1.Cl.Cl` (some centres not stated), the “cell-cell fusion (z-score)” value was inactive: 2.17.
For `C[N+]12CCC(CC1)C(OC(=O)C(O)(c1ccccc1)c1ccccc1)C2.[Br-]` (configuration not stated) [Clidinium bromide], the “cell-cell fusion (z-score)” value was inactive: 3.48.
For `CCN(CC)CCNc1ccc(CO)c2sc3ccccc3c(=O)c12`, the “cell-cell fusion (z-score)” value was inactive: 2.67.
For `CC(=O)O[C@H]1C[C@H](O[C@H]2[C@@H](O)C[C@H](O[C@H]3[C@@H](O)C[C@H](O[C@H]4CC[C@@]5(C)C(CCC6C5C[C@@H](O)[C@]5(C)[C@@H](C7=CC(=O)OC7)CC[C@]65O)C4)O[C@@H]3C)O[C@@H]2C)O[C@H](C)[C@H]1O[C@@H]1O[C@H](CO)[C@@H](O)[C@H](O)[C@H]1O` (some centres not stated), the “cell-cell fusion (z-score)” value was inactive: 0.887.
With `CC1=C2NC(\C=C3/N=C(/C=C4\N\C(=C/C5=N/C(=C\2)/C(C=C)=C5C)C(C=C)=C4C)C(C)=C3CCC(O)=O)=C1CCC(O)=O` the “cell-cell fusion (z-score)” value was inactive: 2.5.
`CC[C@H](Nc1ncnc2nc[nH]c12)c1nc2cccc(F)c2c(=O)n1-c1ccccc1` [Idelalisib] was tested, and the “cell-cell fusion (z-score)” value was inactive: 1.58.
`CCCSc1ccc2nc(NC(=O)OC)[nH]c2c1` was tested, and the “cell-cell fusion (z-score)” value was inactive: 4.23.
For `CC(N)C(=O)OC(C)(C)Cc1ccc(Cl)cc1.Cl` (configuration not stated) [Alaproclate hydrochloride], the “cell-cell fusion (z-score)” value was inactive: 1.82.
`NCCc1ccc(O)c(O)c1` was tested, and the “cell-cell fusion (z-score)” value was inactive: -1.12.
For `O=C(CC(=O)c1ccccc1)c1ccccc1`, the “cell-cell fusion (z-score)” value was inactive: 2.49.
For `Cl.Nc1cc(Cl)c(N=C2NCCN2)c(Cl)c1` [p-Aminoclonidine hydrochloride], the “cell-cell fusion (z-score)” value was inactive: 3.07.
With `Cc1cccc(C)c1NC(=O)CN1CCCC1=O` [Nefiracetam] the “cell-cell fusion (z-score)” value was inactive: 2.6.
For `Cc1cccc(C)c1NC(=O)CN1CCCC1=O`, the “cell-cell fusion (z-score)” value was inactive: 0.644.
`C#C[C@]1(OC(C)=O)CC[C@H]2[C@@H]3CCC4=CC(=O)CC[C@@H]4[C@H]3CC[C@@]21C` was tested, and the “cell-cell fusion (z-score)” value was inactive: 1.53.
In the case of `C[N+](C)(C)CC#CCN1CCCC1=O.[I-]` [Oxotremorine methiodide], the “cell-cell fusion (z-score)” value is reported as inactive: 2.19.
For `O=C1CN=C(c2ccccc2Cl)c2cc([N+](=O)[O-])ccc2N1`, the “cell-cell fusion (z-score)” value was inactive: 0.285.
In the case of `CC1=C(C(=O)O)N2C(=O)[C@@H](NC(=O)[C@H](N)C3=CCC=CC3)C2SC1` (some centres not stated), the “cell-cell fusion (z-score)” value is reported as inactive: 0.772.
With `Cl.O=C1CN2Cc3c(ccc(Cl)c3Cl)NC2=N1` [Anagrelide] the “cell-cell fusion (z-score)” value was inactive: 1.33.
With `CO[C@@]1(NC(=O)CSCC#N)C(=O)N2C(C(=O)[O-])=C(CSc3nnnn3C)CS[C@@H]21.[Na+]` [Cefmetazole sodium] the “cell-cell fusion (z-score)” value was inactive: 1.1.
`CC(=O)c1ccc2c(c1)N(CCCN(C)C)c1ccccc1S2.O=C(O)/C=C\C(=O)O` [Acepromazine maleate] was tested, and the “cell-cell fusion (z-score)” value was inactive: -0.471.
With `C=CCSC[C@@H](N)C(=O)O` the “cell-cell fusion (z-score)” value was inactive: 1.98.
`Nc1ccc(S(=O)(=O)NC(=O)c2ccccc2)cc1` was tested, and the “cell-cell fusion (z-score)” value was inactive: 2.76.
In the case of `CS(=O)(=O)O.Nc1ncnc2c1ncn2C1CCCC1` [9-cyclopentyladenine], the “cell-cell fusion (z-score)” value is reported as inactive: 0.516.
In the case of `O=C(O)c1ccc(-c2c[nH]c3ncc(-c4ccccc4)cc23)cc1C1CCCC1`, the “cell-cell fusion (z-score)” value is reported as inactive: 0.399.
With `CCCCCCCCCc1ccc(O)cc1` the “cell-cell fusion (z-score)” value was inactive: 2.42.
For `CC(C)c1ccc2c(c1)CCC1C(C)(C(N)=O)CCCC21C` (configuration not stated), the “cell-cell fusion (z-score)” value was inactive: 1.52.
`Cl.Cl.Clc1ccc(N2CC3CCC(C2)N3)nn1` was tested, and the “cell-cell fusion (z-score)” value was inactive: 2.8.
In the case of `COc1cc(O)c2c(=O)c(OC)c(-c3ccc(OC)c(OC)c3)oc2c1`, the “cell-cell fusion (z-score)” value is reported as inactive: 1.7.
With `CC(CCC(=O)O)[C@H]1CCC2C3CC[C@@H]4C[C@H](O)CC[C@]4(C)C3C[C@H](O)[C@@]21C` (some centres not stated) the “cell-cell fusion (z-score)” value was inactive: 1.83.
In the case of `Oc1ccc(Cl)c2cccnc12`, the “cell-cell fusion (z-score)” value is reported as inactive: 0.129.
With `CN[C@@H]1C(O)[C@@H](O[C@@H]2[C@@H](O)[C@H](O[C@H]3OC(CN)=CC[C@H]3N)[C@@H](N)C[C@H]2N)OC[C@]1(C)O.O=S(=O)(O)O` (some centres not stated) the “cell-cell fusion (z-score)” value was inactive: 3.88.
With `CC(=O)O[C@]1(C(C)=O)CCC2C3C[C@H](C)C4=CC(=O)CC[C@]4(C)C3CC[C@@]21C` (some centres not stated) the “cell-cell fusion (z-score)” value was inactive: 0.311.
`CC(C)[C@H](N)C(=O)OCCOCn1cnc2c(=O)[nH]c(N)nc21.Cl` [Valacyclovir hydrochloride] was tested, and the “cell-cell fusion (z-score)” value was inactive: 1.51.
`Nc1cccc2c1CN(C1CCC(=O)NC1=O)C2=O` (configuration not stated) [Lenalidomide] was tested, and the “cell-cell fusion (z-score)” value was inactive: 1.64.
In the case of `COC1=C(O)C(=O)c2c(cc3oc(C(C)=O)c(O)c3c2O)C1=O`, the “cell-cell fusion (z-score)” value is reported as inactive: 2.8.
With `Nc1nc2nc[nH]c2c(=S)[nH]1` the “cell-cell fusion (z-score)” value was inactive: 0.669.
With `NS(=O)(=O)c1cc(Cl)c(Cl)c(S(N)(=O)=O)c1` [Dichlorphenamide] the “cell-cell fusion (z-score)” value was inactive: 3.8.
With `O=C(O)c1cc(-c2ccc(F)cc2F)ccc1O` [Diflunisal] the “cell-cell fusion (z-score)” value was inactive: 3.21.
For `CN(C)[C@@H]1C(O)=C(C(N)=O)C(=O)[C@@]2(O)C(O)=C3C(=O)c4c(O)ccc(Cl)c4[C@@](C)(O)[C@H]3C[C@@H]12.Cl`, the “cell-cell fusion (z-score)” value was inactive: 0.743.

From the supplement of paper PMC8104966
